This is an account of results in paper PMC4637037.

In general, Kd refers to the equilibrium constant for the complex coming apart.

The exact form of at least one protein or probe is not confirmed. For part of these data: A weaker result is weaker than the reference pair of the same experiment. Tags and fusion partners may be left off the protein sequences shown. For part of these data: Where cells or extracts were used, other partners may take part.

The target of series [1] is T1, GP73 in tumor cell lines (Western blot) (UniProt Q8NBJ4).
T1 sequence (looked up, limits assumed): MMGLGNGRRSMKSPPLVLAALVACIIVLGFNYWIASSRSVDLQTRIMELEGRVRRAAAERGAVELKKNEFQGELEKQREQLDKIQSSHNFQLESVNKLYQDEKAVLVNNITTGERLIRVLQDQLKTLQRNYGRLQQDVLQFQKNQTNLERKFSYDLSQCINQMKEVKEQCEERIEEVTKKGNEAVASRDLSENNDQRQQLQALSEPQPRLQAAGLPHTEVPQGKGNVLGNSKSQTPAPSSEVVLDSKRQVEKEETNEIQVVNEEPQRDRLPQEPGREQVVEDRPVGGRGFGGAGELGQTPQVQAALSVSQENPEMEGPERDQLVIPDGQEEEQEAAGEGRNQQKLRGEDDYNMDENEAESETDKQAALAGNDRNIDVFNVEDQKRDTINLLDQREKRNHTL
As to the kind of experiment: aptamer Western blot. Particulars: biotin-A10-2 5 ng/uL used as primary probe on tumor cell lines; 20 mM HEPES, 120 mM NaCl, 5 mM KCl, 1 mM CaCl2, 1 mM MgCl2, pH 7.3, 37 C, 2 h; plates blocked with 3% BSA; washes with binding buffer; protein in an extract; single-stranded DNA. (Immunoblotting shows a protein as a band on a membrane.)

Series [2] addresses T2, GP73 (Golgi protein 73) (Homo sapiens) (UniProt Q8NBJ4).
T2 sequence (looked up, limits assumed): T1 sequence (looked up, limits assumed)
As to the kind of experiment: competition (ELASA, antibody blocking). Particulars: anti-GP73 antibody 0.03125-1 ug/mL preincubated, binding falls with antibody concentration; 20 mM HEPES, 120 mM NaCl, 5 mM KCl, 1 mM CaCl2, 1 mM MgCl2, pH 7.3, 37 C, 2 h; plates blocked with 3% BSA; washes with binding buffer; recombinant protein; single-stranded DNA.

Series [3] deals with T2, GP73 (Golgi protein 73) (Homo sapiens). As to the kind of experiment: ELASA (plate-immobilized GP73, anti-Dig-ALP). Particulars: 1 mM Mg2+, 1 mM Ca2+, GP73 coated at 0.5, 1 and 2 ug/mL; 20 mM HEPES, 120 mM NaCl, 5 mM KCl, 1 mM CaCl2, 1 mM MgCl2, pH 7.3, 37 C, 2 h; plates blocked with 3% BSA; washes with binding buffer; recombinant protein; single-stranded DNA.

As for “ACGCTCGGATGCCACTACAGTTGGTTTTTTTTTGTTATTTAGAGTAAAAACCTTGTGTGTAGTGACTCATGGACGTGCTGGTGAC [A10-2 biotin]”, the binding result in series [1] is “binds”.

As for “ACGCTCGGATGCCACTACAGTTGGTTTTTTTTTGTTATTTAGAGTAAAAACCTTGTGTGTAGTGACTCATGGACGTGCTGGTGAC [A10-2]”, the binding result in series [2] was “binds more weakly”. The Kd in series [3] amounted to 127 nM.
